Data on one molecule can be found in publication PMC5095350, “Engineered AAA+ proteases reveal principles of proteolysis at the mitochondrial inner membrane” (Nature Communications, 2016).

The target in this test is YME1L-AP (human) (UniProt Q96TA2). Put plainly: condition: 1 mg of protein in a volume of 200 μl injected; SEC; analytical SEC, Superose 6 Increase 10/300 GL; 1 mg of protein in 200 μl; 50 mM Tris-HCl (pH 8.0), 100 mM NaCl, 0.5 mM TCEP; hexYME1L also with 5 mM EDTA or with ATPγS and MgCl2 (no change in migration); both purified.

Results are given in words; binding and its absence hold for the method and conditions named.

B1: YME1L-AP (domain or fragment, UniProt Q96TA2 317-773)
chain: RFRTTTGLDSAVDPVQMKNVTFEHVKGVEEAKQELQEVVEFLKNPQKFTILGGKLPKGILLVGPPGTGKTLLARAVAGEADVPFYYASGSEFDEMFVGVGASRIRNLFREAKANAPCVIFIDELDSVGGKRIESPMHPYSRQTINQLLAEMDGFKPNEGVIIIGATNFPEALDNALIRPGRFDMQVTVPRPDVKGRTEILKWYLNKIKFDQSVDPEIIARGTVGFSGAELENLVNQAALKAAVDGKEMVTMKELEFSKDKILMGPERRSVEIDNKNKTITAYHESGHAIIAYYTKDAMPINKATIMPRGPTLGHVSLLPENDRWNETRAQLLAQMDVSMGGRVAEELIFGTDHITTGASSDFDNATKIAKRMVTKFGMSEKLGVMTYSDTGKLSPETQSAIEQEIRILLRDSYERAKHILKTHAKEHKNLAEALLTYETLDAKEIQIVLEGKKLEVR
Consider B1, for which the binding entry was “no binding”.
